Data: the supplement of paper PMC10849652
This is one part of the list.

Protein sequences, listed by entry. Tags and fused reporters are not part of them. Lines headed by an entry give the natural chain unless they say otherwise; changes in a name come on top.
UniProt Q8WUM0: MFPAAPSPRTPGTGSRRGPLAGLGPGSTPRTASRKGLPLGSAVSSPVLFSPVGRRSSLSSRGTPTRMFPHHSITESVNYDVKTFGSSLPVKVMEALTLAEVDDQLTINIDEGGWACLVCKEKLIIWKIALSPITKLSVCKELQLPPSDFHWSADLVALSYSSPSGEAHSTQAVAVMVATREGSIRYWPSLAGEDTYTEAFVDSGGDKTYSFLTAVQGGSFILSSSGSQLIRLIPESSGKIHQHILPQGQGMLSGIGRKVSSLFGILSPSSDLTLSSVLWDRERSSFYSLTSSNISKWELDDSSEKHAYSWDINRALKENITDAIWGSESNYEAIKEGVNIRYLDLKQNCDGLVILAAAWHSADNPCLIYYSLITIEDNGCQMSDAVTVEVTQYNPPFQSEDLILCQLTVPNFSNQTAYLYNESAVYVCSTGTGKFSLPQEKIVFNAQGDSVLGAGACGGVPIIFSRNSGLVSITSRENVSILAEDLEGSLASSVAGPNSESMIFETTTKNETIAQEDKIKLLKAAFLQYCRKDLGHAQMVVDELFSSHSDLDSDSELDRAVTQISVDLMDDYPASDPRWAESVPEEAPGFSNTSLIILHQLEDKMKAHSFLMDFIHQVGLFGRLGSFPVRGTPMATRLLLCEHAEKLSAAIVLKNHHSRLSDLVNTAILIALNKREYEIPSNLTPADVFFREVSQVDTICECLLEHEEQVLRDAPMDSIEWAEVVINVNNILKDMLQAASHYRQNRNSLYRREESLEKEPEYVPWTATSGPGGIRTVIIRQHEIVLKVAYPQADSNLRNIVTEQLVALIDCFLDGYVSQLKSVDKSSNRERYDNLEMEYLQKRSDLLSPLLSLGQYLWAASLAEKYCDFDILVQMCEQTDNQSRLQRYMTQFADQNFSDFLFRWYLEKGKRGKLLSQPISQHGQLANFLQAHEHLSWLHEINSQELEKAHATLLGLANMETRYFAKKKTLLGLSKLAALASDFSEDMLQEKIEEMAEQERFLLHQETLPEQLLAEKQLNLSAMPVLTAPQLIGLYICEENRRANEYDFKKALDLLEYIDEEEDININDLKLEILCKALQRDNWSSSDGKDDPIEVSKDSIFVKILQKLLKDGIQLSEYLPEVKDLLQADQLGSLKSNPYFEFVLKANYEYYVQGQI
UniProt Q9UQ80: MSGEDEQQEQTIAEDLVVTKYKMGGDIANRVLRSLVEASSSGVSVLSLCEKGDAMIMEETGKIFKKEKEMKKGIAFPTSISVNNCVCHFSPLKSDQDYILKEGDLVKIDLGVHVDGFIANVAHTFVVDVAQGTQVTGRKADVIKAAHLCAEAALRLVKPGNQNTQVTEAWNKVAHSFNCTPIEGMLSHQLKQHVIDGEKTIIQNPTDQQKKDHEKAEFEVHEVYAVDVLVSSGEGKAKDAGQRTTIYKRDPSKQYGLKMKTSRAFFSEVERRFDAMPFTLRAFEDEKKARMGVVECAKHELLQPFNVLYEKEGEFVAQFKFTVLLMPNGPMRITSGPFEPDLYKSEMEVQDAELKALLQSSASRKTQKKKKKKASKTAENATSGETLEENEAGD
UniProt Q9BSD7: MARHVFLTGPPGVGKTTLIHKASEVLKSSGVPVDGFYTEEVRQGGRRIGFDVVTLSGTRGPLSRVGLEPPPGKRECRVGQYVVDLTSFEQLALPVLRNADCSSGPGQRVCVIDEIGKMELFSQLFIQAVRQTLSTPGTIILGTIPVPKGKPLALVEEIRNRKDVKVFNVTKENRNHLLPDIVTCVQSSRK
UniProt Q9NPF4: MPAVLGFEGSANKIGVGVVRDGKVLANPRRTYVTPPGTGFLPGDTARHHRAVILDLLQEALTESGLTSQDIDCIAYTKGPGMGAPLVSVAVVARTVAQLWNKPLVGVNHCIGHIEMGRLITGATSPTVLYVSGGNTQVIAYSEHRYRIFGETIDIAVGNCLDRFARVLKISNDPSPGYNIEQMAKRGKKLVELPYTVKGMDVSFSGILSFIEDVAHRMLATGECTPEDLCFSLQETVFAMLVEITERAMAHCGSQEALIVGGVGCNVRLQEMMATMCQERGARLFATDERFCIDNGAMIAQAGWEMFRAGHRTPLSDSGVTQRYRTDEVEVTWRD
UniProt Q8IVD9: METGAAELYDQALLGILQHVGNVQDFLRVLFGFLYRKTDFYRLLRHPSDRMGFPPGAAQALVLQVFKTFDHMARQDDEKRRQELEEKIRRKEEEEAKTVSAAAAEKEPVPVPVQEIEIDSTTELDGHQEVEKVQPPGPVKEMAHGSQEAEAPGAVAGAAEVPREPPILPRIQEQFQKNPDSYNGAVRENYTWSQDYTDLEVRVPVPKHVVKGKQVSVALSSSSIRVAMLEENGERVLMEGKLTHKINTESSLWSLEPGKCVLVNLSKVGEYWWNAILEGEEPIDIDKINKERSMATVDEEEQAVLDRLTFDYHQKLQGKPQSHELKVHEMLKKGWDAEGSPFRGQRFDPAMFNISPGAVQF
UniProt Q9NV35: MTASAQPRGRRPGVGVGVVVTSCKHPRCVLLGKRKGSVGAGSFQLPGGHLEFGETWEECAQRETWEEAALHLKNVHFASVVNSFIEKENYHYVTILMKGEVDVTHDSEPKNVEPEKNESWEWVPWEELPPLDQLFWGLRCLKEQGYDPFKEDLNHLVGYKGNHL
UniProt Q96CB9: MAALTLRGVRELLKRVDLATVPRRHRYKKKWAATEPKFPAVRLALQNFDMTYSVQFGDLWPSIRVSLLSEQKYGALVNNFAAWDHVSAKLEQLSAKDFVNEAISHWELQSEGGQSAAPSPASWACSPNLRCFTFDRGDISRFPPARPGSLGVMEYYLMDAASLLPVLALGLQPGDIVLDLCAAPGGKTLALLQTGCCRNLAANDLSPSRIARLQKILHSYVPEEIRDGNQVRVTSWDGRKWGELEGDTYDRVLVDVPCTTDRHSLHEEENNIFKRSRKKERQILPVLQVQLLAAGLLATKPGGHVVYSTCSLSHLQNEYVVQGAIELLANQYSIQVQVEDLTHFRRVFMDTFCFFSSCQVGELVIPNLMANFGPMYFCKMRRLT
UniProt Q96SU4: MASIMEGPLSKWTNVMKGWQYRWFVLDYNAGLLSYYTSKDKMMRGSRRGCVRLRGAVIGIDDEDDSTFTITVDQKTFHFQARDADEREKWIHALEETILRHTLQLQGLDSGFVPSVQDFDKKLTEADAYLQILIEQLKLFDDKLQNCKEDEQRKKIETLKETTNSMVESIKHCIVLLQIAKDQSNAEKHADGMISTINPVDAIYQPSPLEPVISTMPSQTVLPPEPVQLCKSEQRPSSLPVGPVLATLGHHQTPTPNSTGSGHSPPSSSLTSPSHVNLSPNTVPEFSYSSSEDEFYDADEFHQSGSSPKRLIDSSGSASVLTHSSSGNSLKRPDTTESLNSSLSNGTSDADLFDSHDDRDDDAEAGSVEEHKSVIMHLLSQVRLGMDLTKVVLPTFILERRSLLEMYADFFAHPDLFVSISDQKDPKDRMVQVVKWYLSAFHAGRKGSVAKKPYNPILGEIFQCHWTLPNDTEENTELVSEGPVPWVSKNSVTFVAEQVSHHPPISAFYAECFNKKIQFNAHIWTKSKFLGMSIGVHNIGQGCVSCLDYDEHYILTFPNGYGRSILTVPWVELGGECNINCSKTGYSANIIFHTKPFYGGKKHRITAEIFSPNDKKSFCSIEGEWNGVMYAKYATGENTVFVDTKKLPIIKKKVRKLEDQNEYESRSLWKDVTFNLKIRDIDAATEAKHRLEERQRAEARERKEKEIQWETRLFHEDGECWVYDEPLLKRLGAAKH
UniProt Q96RS6: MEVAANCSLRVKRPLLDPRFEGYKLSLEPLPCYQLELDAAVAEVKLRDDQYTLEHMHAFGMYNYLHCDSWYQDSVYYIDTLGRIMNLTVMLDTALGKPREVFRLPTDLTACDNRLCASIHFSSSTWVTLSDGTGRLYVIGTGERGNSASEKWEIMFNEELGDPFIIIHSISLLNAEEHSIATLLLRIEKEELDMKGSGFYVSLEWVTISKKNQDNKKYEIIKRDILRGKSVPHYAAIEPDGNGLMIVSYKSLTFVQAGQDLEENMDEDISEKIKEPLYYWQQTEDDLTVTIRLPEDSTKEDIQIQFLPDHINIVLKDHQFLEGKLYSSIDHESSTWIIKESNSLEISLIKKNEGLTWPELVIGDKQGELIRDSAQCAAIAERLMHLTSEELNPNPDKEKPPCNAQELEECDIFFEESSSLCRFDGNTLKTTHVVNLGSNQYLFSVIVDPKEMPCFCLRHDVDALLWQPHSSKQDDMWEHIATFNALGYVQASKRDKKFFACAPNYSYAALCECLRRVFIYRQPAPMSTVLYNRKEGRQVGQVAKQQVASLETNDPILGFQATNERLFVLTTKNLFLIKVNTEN
UniProt Q01968: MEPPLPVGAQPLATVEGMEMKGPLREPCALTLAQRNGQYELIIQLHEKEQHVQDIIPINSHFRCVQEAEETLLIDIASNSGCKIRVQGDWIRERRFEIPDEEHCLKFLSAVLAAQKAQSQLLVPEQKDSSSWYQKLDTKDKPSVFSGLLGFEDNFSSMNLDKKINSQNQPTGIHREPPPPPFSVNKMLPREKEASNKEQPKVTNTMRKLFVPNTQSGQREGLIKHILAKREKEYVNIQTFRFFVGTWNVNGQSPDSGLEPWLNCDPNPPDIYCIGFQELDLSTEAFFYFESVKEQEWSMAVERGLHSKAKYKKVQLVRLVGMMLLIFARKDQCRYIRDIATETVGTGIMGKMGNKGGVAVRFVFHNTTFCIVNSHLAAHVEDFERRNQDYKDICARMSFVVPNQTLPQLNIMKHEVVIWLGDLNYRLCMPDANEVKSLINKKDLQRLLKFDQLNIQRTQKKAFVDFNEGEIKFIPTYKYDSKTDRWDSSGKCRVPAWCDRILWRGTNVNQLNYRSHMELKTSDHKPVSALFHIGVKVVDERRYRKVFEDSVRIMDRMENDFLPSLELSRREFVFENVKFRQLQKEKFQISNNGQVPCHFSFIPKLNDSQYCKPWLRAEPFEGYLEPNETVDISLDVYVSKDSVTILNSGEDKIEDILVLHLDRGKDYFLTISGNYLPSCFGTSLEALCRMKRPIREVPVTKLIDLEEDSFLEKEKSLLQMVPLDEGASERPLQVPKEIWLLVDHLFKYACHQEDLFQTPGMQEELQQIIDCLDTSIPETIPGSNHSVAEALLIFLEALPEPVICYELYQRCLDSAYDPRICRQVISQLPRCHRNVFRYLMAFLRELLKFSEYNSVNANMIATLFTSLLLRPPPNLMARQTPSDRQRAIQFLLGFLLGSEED
UniProt Q9H0G5: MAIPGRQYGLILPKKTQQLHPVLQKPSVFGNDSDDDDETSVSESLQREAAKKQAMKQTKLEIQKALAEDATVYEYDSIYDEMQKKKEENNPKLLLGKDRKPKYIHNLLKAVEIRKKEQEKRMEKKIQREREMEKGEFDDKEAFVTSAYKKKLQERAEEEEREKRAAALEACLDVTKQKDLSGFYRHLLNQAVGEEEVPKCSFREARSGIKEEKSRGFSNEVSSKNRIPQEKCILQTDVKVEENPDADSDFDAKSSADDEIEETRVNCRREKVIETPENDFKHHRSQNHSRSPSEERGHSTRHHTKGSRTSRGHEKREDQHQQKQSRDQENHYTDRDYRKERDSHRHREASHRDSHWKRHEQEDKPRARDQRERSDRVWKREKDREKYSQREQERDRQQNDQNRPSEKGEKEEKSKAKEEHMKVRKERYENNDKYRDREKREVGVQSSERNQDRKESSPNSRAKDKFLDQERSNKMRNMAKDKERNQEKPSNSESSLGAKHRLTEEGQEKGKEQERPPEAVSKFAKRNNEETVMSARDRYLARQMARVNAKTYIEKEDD
UniProt Q9BW91: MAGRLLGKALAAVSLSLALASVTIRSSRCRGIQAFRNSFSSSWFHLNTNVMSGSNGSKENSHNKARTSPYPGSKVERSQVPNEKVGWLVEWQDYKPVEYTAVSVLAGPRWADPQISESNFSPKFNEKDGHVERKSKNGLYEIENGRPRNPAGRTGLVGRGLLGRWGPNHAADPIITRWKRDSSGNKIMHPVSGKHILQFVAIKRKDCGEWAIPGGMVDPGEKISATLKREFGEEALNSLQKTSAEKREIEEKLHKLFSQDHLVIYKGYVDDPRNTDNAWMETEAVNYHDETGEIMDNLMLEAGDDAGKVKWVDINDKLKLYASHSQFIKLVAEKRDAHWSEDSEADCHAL
UniProt Q9UKX7: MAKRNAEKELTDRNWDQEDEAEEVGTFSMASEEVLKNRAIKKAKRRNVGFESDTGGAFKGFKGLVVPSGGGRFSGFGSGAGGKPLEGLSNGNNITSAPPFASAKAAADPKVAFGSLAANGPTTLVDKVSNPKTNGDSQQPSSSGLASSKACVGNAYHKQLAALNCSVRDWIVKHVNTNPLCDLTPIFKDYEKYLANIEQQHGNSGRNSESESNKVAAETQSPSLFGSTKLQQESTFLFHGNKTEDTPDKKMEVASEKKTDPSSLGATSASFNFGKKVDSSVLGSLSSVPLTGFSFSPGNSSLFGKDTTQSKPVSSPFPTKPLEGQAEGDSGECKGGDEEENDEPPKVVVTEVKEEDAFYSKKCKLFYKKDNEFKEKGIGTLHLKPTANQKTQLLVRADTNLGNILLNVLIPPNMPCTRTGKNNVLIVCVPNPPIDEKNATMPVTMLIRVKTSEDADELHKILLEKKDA

What was measured:
Assay in all cases: log2 fold change, soluble protein after heating vs DMSO (PISA); higher = thermal stabilisation; K562 cells, 10 uM, 30 min; active = over 0.2 and 3.5 SD of the protein, either way, in both replicates (recomputed)
[1] = compound: COC1=CC=C(C=C1)CN2C=CC3=C2C=C(C=C3)C(=O)NO
Outline: (§1)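 K562 cells at 2×10^6 cells/mL were treated with 10 μM compound for 30 min. Aliquots were heated for 3 min across 48°C-58°C, pooled, and extracted in PBS with 0.5% NP-40 at 4°C; soluble protein was the supernatant after 21,000xg for 90 min. Soluble protein was quantified by TMTpro 16plex LC-MS/MS with channel sums equalised, and reported as log2 fold change in thermal stability against DMSO controls, with values from duplicates.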

filanesib = compound: CON(C)C(=O)N1N=C(c2cc(F)ccc2F)S[C@@]1(CCCN)c1ccccc1 [filanesib]
Outline: as §1

zotarolimus = compound: CO[C@H]1C[C@@H]2CC[C@@H](C)[C@@](O)(O2)C(=O)C(=O)N2CCCC[C@H]2C(=O)O[C@H]([C@H](C)C[C@@H]2CC[C@H](n3cnnn3)[C@H](OC)C2)CC(=O)[C@H](C)/C=C(\C)[C@@H](O)[C@@H](OC)C(=O)[C@H](C)C[C@H](C)/C=C/C=C/C=C/1C [zotarolimus]
Outline: as §1

idasanutlin = compound: COc1cc(C(=O)O)ccc1NC(=O)[C@@H]1N[C@@H](CC(C)(C)C)[C@](C#N)(c2ccc(Cl)cc2F)[C@H]1c1cccc(Cl)c1F [idasanutlin]
Outline: as §1

alisertib = compound: COc1cc(Nc2ncc3c(n2)-c2ccc(Cl)cc2C(c2c(F)cccc2OC)=NC3)ccc1C(=O)O [alisertib]
Outline: as §1

[2] = compound: COc1cc2nc(-c3cc(F)ccc3O)nc(N[C@@H]3CNC[C@H]3C(C)(C)O)c2cc1OC
Outline: as §1

gefitinib = compound: COc1cc2ncnc(Nc3ccc(F)c(Cl)c3)c2cc1OCCCN1CCOCC1 [gefitinib]
Outline: as §1

[3] = compound: COc1cccc2cc(-c3nc([C@H]4CC[C@H](C(=O)O)CC4)n4ncnc(N)c34)[nH]c12
Outline: as §1

lapatinib = compound: CS(=O)(=O)CCNCc1ccc(-c2ccc3ncnc(Nc4ccc(OCc5cccc(F)c5)c(Cl)c4)c3c2)o1 [lapatinib]
Outline: as §1

pictilisib = compound: CS(=O)(=O)N1CCN(Cc2cc3nc(-c4cccc5[nH]ncc45)nc(N4CCOCC4)c3s2)CC1 [pictilisib]
Outline: as §1

[4] = compound: CS(=O)(=O)c1ccc(-c2cnc(N)c(C(=O)Nc3ccccc3)n2)cc1
Outline: as §1

crizotinib = compound: C[C@@H](Oc1cc(-c2cnn(C3CCNCC3)c2)cnc1N)c1c(Cl)ccc(F)c1Cl [crizotinib]
Outline: as §1

[5] = compound: C[C@@H]1COCCN1C2=NC(=NC(=C2)C3(CC3)S(=O)(=O)C)C4=C5C=CNC5=CC=C4
Outline: as §1

[6] = compound: C[C@H](C1=CC=C(C=C1)C(=O)NC2=C3C=CNC3=NC=C2)N
Outline: as §1

duvelisib = compound: C[C@H](Nc1ncnc2nc[nH]c12)c1cc2cccc(Cl)c2c(=O)n1-c1ccccc1 [duvelisib]
Outline: as §1

gandotinib = compound: Cc1cc(Nc2cc(CN3CCOCC3)c3nc(C)c(Cc4ccc(Cl)cc4F)n3n2)n[nH]1 [gandotinib]
Outline: as §1

tozasertib = compound: Cc1cc(Nc2cc(N3CCN(C)CC3)nc(Sc3ccc(NC(=O)C4CC4)cc3)n2)n[nH]1 [tozasertib]
Outline: as §1

[7] = compound: Cc1cc(SCc2sc(-c3ccc(C(F)(F)F)cc3)nc2C)ccc1OCC(=O)O
Outline: as §1

doramapimod = compound: Cc1ccc(-n2nc(C(C)(C)C)cc2NC(=O)Nc2ccc(OCCN3CCOCC3)c3ccccc23)cc1 [doramapimod]
Outline: as §1

ispinesib = compound: Cc1ccc(C(=O)N(CCCN)[C@@H](c2nc3cc(Cl)ccc3c(=O)n2Cc2ccccc2)C(C)C)cc1 [ispinesib]
Outline: as §1

Measured: log2 fold change

NUP133 (UniProt Q8WUM0)
inactive: [1] -0.075 | filanesib 0.27 | zotarolimus 0.042 | idasanutlin 0.212 | alisertib -0.081 | [2] 0.006 | gefitinib -0.062 | [3] -0.045 | lapatinib -0.029 | pictilisib -0.066 | [4] 0.035 | crizotinib -0.098 | [5] -0.085 | [6] 0.097 | duvelisib 0.017 | gandotinib 0.043 | tozasertib 0.031 | [7] 0 | doramapimod 0.062 | ispinesib -0.114

PA2G4 (UniProt Q9UQ80)
inactive: [1] 0.066 | filanesib -0.059 | zotarolimus 0.042 | idasanutlin -0.014 | alisertib -0.053 | [2] 0.007 | gefitinib -0.001 | [3] 0.011 | lapatinib 0.016 | pictilisib 0.013 | [4] 0.039 | crizotinib -0.081 | [5] 0.114 | [6] -0.023 | duvelisib -0.003 | gandotinib 0.016 | tozasertib -0.023 | [7] 0.054 | doramapimod 0.044 | ispinesib -0.005

NTPCR (UniProt Q9BSD7)
inactive: [1] 0.109 | filanesib -0.107 | zotarolimus 0 | idasanutlin -0.055 | alisertib -0.084 | [2] -0.051 | gefitinib -0.027 | [3] 0.018 | lapatinib -0.049 | pictilisib 0.074 | [4] 0.049 | crizotinib -0.165 | [5] 0.05 | [6] -0.019 | duvelisib 0.037 | gandotinib -0.155 | tozasertib -0.02 | [7] -0.021 | doramapimod 0.037 | ispinesib -0.054

OSGEP (UniProt Q9NPF4)
inactive: [1] -0.116 | filanesib 0.016 | zotarolimus -0.019 | idasanutlin -0.011 | alisertib -0.056 | [2] 0.002 | gefitinib 0.014 | [3] 0.075 | lapatinib 0.007 | pictilisib 0.002 | [4] 0.017 | crizotinib 0.038 | [5] -0.013 | [6] -0.04 | duvelisib 0.018 | gandotinib -0.01 | tozasertib -0.024 | [7] -0.015 | doramapimod -0.027 | ispinesib 0.049

NUDCD3 (UniProt Q8IVD9)
inactive: [1] -0.029 | filanesib 0 | zotarolimus 0.031 | idasanutlin 0.001 | alisertib -0.046 | [2] 0.03 | gefitinib -0.008 | [3] -0.035 | lapatinib -0.017 | pictilisib 0.001 | [4] 0.031 | crizotinib 0.012 | [5] 0.054 | [6] -0.011 | duvelisib 0.002 | gandotinib -0.045 | tozasertib 0.032 | [7] 0.096 | doramapimod 0.007 | ispinesib -0.139

NUDT15 (UniProt Q9NV35)
inactive: [1] 0.017 | filanesib -0.024 | zotarolimus 0.036 | idasanutlin -0.078 | alisertib -0.005 | [2] 0.008 | gefitinib 0.005 | [3] 0.02 | lapatinib 0.015 | pictilisib 0.299 | [4] 0.049 | crizotinib 0.038 | [5] 0.099 | [6] -0.077 | duvelisib 0.054 | gandotinib -0.074 | tozasertib -0.025 | [7] 0.015 | doramapimod -0.026 | ispinesib 0.091

NSUN4 (UniProt Q96CB9)
inactive: [1] -0.212 | filanesib 0.109 | zotarolimus -0.033 | idasanutlin -0.026 | alisertib -0.125 | [2] 0.08 | gefitinib -0.065 | [3] 0.267 | lapatinib -0.036 | pictilisib 0.009 | [4] -0.04 | crizotinib -0.1 | [5] -0.039 | [6] 0.123 | duvelisib -0.046 | gandotinib -0.017 | tozasertib 0.008 | [7] 0.046 | doramapimod 0.048 | ispinesib -0.105

OSBPL9 (UniProt Q96SU4)
inactive: [1] 0.023 | filanesib 0.128 | zotarolimus 0.076 | idasanutlin 0.077 | alisertib 0.132 | [2] -0.021 | gefitinib 0.219 | [3] -0.139 | lapatinib 0.37 | pictilisib -0.056 | [4] 0.004 | crizotinib -0.165 | [5] -0.027 | [6] 0.323 | duvelisib -0.184 | gandotinib 0.041 | tozasertib 0.17 | [7] 0.066 | doramapimod 0.174 | ispinesib -0.336

P4HB (UniProt P07237)
inactive: [1] -0.027 | filanesib -0.007 | zotarolimus -0.017 | idasanutlin 0.007 | alisertib -0.068 | [2] 0.012 | gefitinib 0.026 | [3] 0.022 | lapatinib -0.026 | pictilisib -0.015 | [4] 0.011 | crizotinib 0.072 | [5] 0.004 | [6] -0.039 | duvelisib -0.002 | gandotinib 0.001 | tozasertib -0.006 | [7] -0.031 | doramapimod 0.019 | ispinesib 0.037

Copied from the entries so far (2 entries):
NSUN4 (UniProt Q96CB9)
inactive: [1] -0.212 | filanesib 0.109 | zotarolimus -0.033 | idasanutlin -0.026 | alisertib -0.125 | [2] 0.08 | gefitinib -0.065 | [3] 0.267 | lapatinib -0.036 | pictilisib 0.009 | [4] -0.04 | crizotinib -0.1 | [5] -0.039 | [6] 0.123 | duvelisib -0.046 | gandotinib -0.017 | tozasertib 0.008 | [7] 0.046 | doramapimod 0.048 | ispinesib -0.105

OSBPL9 (UniProt Q96SU4)
inactive: [1] 0.023 | filanesib 0.128 | zotarolimus 0.076 | idasanutlin 0.077 | alisertib 0.132 | [2] -0.021 | gefitinib 0.219 | [3] -0.139 | lapatinib 0.37 | pictilisib -0.056 | [4] 0.004 | crizotinib -0.165 | [5] -0.027 | [6] 0.323 | duvelisib -0.184 | gandotinib 0.041 | tozasertib 0.17 | [7] 0.066 | doramapimod 0.174 | ispinesib -0.336

Continued:

OPLAH (UniProt O14841)
inactive: [1] 0.017 | filanesib -0.006 | zotarolimus 0.019 | idasanutlin -0.041 | alisertib -0.062 | [2] 0.044 | gefitinib 0.002 | [3] 0.043 | lapatinib -0.032 | pictilisib 0.022 | [4] 0.034 | crizotinib -0.007 | [5] 0.06 | [6] -0.008 | duvelisib 0.031 | gandotinib -0.039 | tozasertib -0.023 | [7] -0.014 | doramapimod 0.021 | ispinesib 0.009

NUDCD1 (UniProt Q96RS6)
inactive: [1] 0 | filanesib -0.091 | zotarolimus 0.006 | idasanutlin -0.042 | alisertib -0.073 | [2] -0.005 | gefitinib 0.004 | [3] 0.012 | lapatinib -0.006 | pictilisib 0.047 | [4] 0.005 | crizotinib 0 | [5] 0.096 | [6] -0.119 | duvelisib 0.065 | gandotinib -0.081 | tozasertib 0 | [7] 0.029 | doramapimod -0.001 | ispinesib 0.04

NUP188 (UniProt Q5SRE5)
inactive: [1] 0.031 | filanesib -0.005 | zotarolimus 0.033 | idasanutlin -0.052 | alisertib 0.008 | [2] 0.072 | gefitinib 0.014 | [3] -0.049 | lapatinib -0.024 | pictilisib 0.031 | [4] 0.031 | crizotinib -0.03 | [5] 0.057 | [6] -0.008 | duvelisib -0.003 | gandotinib -0.114 | tozasertib 0.012 | [7] 0.063 | doramapimod 0.007 | ispinesib 0.001

OCRL (UniProt Q01968)
inactive: [1] 0.011 | filanesib -0.006 | zotarolimus -0.031 | idasanutlin -0.037 | alisertib -0.009 | [2] 0.067 | gefitinib -0.175 | [3] 0.029 | lapatinib 0.022 | pictilisib 0.034 | [4] 0.046 | crizotinib -0.192 | [5] -0.028 | [6] 0.205 | duvelisib 0.03 | gandotinib -0.138 | tozasertib 0.025 | [7] -0.107 | doramapimod 0.053 | ispinesib -0.101

NSRP1 (UniProt Q9H0G5)
inactive: [1] -0.024 | filanesib 0.243 | zotarolimus -0.003 | idasanutlin 0.163 | alisertib -0.078 | [2] -0.087 | gefitinib -0.029 | [3] -0.023 | lapatinib 0.079 | pictilisib -0.04 | [4] -0.045 | crizotinib 0.012 | [5] -0.193 | [6] 0.138 | duvelisib -0.061 | gandotinib 0.085 | tozasertib -0.051 | [7] -0.012 | doramapimod 0.086 | ispinesib -0.115

NUDT9 (UniProt Q9BW91)
inactive: [1] -0.006 | filanesib 0.011 | zotarolimus 0.028 | idasanutlin -0.007 | alisertib -0.046 | [2] 0.018 | gefitinib 0.014 | [3] 0.028 | lapatinib -0.004 | pictilisib 0.05 | [4] -0.016 | crizotinib 0.074 | [5] 0.077 | [6] 0.005 | duvelisib 0.039 | gandotinib -0.001 | tozasertib 0.061 | [7] 0.048 | doramapimod -0.057 | ispinesib 0.03

NUP50 (UniProt Q9UKX7)
inactive: [1] -0.011 | filanesib -0.046 | zotarolimus 0.016 | idasanutlin 0.014 | alisertib 0.017 | [2] -0.047 | gefitinib 0.016 | [3] 0.067 | lapatinib 0 | pictilisib -0.03 | [4] -0.031 | crizotinib 0.098 | [5] 0.031 | [6] -0.057 | duvelisib 0.013 | gandotinib 0.085 | tozasertib -0.022 | [7] -0.02 | doramapimod -0.033 | ispinesib 0.003
